Measurements: patent US20090162351A1, “Transdiscal administration of inhibitors of p38 MAP kinase” (DePuy Spine, Inc., priority 2007, published 2009)
At least one structure is not confirmed: it was looked up by name or label, or the drawing left a doubt.

Assays:
Format in all cases: cell-based
[1] = tested on: bovine chondrocyte pellets / ARC tissues stimulated with IL-1β; assay: Chondrocyte pellet / ARC culture model: GAG degradation assay
Description: A chondrocyte pellet culture model was developed for in vitro high throughput screening of therapeutic compounds for inhibition of IL-1β-stimulated matrix degradation. The chondrocyte pellet culture model can be used to detect various potential therapeutic compounds effective in blocking different processes caused by IL-1β stimulation. For example, IL-1β stimulation results in increased glycosaminoglycan (GAG) degradation, prostaglandin E2 (PGE2) synthesis and total nitrite/nitrate production. Compounds with different mechanisms of action may inhibit the increase of one or two or all three of these parameters. For this reason, screening by, for example, measuring only GAG release would be limited to detection of a specific class of inhibitors and may not detect compounds with diversified mechanisms of function which may be involved in inhibition of the IL-1 stimulated inflammatory process. The development of the chondrocyte pellet culture assay system in a 96-well plate made possible large-scale screening of potential therapeutic compounds with different mechanisms of action.
Calf articular cartilage was obtained from the knee joints of eight to twelve month old animals and was processed within twenty-four hours after sacrifice. […]

[2] = tested on: NO production in injured bovine cartilage explants; assay: Drop tower model: NO production in injured cartilage explants; conditions: 10 μM; cocktail of cytokines (IL-1β, TNF-α, INF-γ), five days
Experimental: In the second method, the explants were cultured at 37° C., 5% CO2 either in stimulated or non-stimulated conditioned medium as described above or in defined medium containing DMEM supplemented with 1% FCS, 1× insulin-transferrin-sodium selenite media supplement and Antibiotics-Antimycotics in the presence or absence of a cocktail of cytokines containing 10 ng/ml of IL-1β, 100 ng/ml of TNFα and 5 ng/ml of IFN-γ. The compounds were solubilized in H2O, Ethanol or DMSO (10^−2 M) according to suppliers' instructions and further diluted with either conditioned medium stimulated with or without LPS to the required concentrations. DMSO concentrations in the culture media never exceeded 1%. This concentration of DMSO has no effect on cartilage proteoglycan metabolism in response to cytokines. The injured and noninjured cartilage explants were treated with compound-containing medium for three to five days. The specimens were first treated with compounds at desired concentrations at 37° C. for one hour and then incubated for three to five days in the absence or presence of the cocktail of cytokines. […]
Nitrate/Nitrite was measured using the Griess reaction (Green L. C. et al., “Analysis of Nitrate, Nitrite, and [15N]nitrate in Biological Fluids,” Anal. Biochem. 126: 131-138 (1982)) with a Nitrate/Nitrite Colorimetric Assay Kit (Cayman Chemicals), as described in Example III above.

[3] = tested on: IL-1β-stimulated PGE2 synthesis in bovine chondrocyte pellets / ARC tissues; assay: Chondrocyte pellet / ARC culture model: Prostaglandin E2 assay
Description: (§1) Calf articular cartilage was obtained from the knee joints of eight to twelve month old animals and was processed within twenty-four hours after sacrifice. After removal of muscle and ligament, the cartilage was kept moist using phosphate buffer solution (PBS) to prevent tissue dehydration, and was aseptically peeled off from subchondral bone with a scalpel, and the cartilage pieces were further minced into smaller pieces (˜0.3-0.5×˜0.2-0.5 cm cubes). […] Chondrocytes were then enzymatically isolated from the tissue by incubation for overnight at 37° C. with gentle agitation in 0.2% collagenase in Dulbecco's modified eagle media (DMEM). After removal of tissue debris by filtration through cell strainer and the residual collagenase by 3× wash in PBS, cells were finally resuspended at a density of 2.5×10^6 cells/ml in chondrocyte medium. […]
Prostaglandin E2 (PGE2) was measured with a STAT-Prostaglandin E2 EIA ELISA kit (Cayman Biochemicals). […]
To characterize the relative efficacies among different p38 MAP kinase inhibitors, dose-response curves were generated for both PGE2 and NO assays. […] The IL-1β-stimulated PGE2 synthesis or NO production was first calculated by subtraction of PGE2/NO levels in the absence of IL-1β from that in the presence of IL-1β. […]

[4] = tested on: IL-1β-stimulated NO production in bovine chondrocyte pellets / ARC tissues; assay: Chondrocyte pellet / ARC culture model: total nitrite and nitrate assay
Description: as §1
Nitrate/Nitrite levels were measured using the Griess reaction (Green L. C. et al., “Analysis of Nitrate, Nitrite, and [15N]nitrate in Biological Fluids,” Anal. Biochem. 126: 131-138 (1982)) with a Nitrate/Nitrite Colorimetric Assay Kit (Cayman Chemicals), the contents of which are incorporated herein by reference. […] Photometric measurement of the absorbance at 540 or 550 nm due to this azo chromophore accurately determined nitrite concentration. […]

[5] = tested on: injured bovine articular cartilage explants in inflammatory medium; assay: Drop tower model: GAG degradation in injured cartilage explants; conditions: five days
Description: In order to assess cartilage breakdown by inflammatory mediators and the effect of antagonists on those mediators, a cartilage impact model (the “drop tower model”) was established using a drop tower device to apply a peak compressive stress to a cartilage sample of about 20-30 MPa over an area of about 11-15 mm^2. Advantages of this model included its clinical relevance due to its potential to mimic several key parameters of osteoarthritis such as inflammatory cell mediators (by co-culturing with inflammatory cells), and induction of trauma to create the cartilage damage.
In the “drop tower design model” cartilage explants were first injured and then cultured in inflammatory medium to mimic the progression of joint impact trauma linked to cartilage degeneration and osteoarthritis. […]
In the first method, bovine or human PBMCs were freshly prepared using Ficoll gradient by Lampire Biological Laboratories, Inc. PBMCs in RPMI w/10% FCS at delivery were spun down at 1500 rpm for twenty minutes and the cell pellet was washed twice with 1×PBS to wash off the residual Ficoll. […] Each conditioned medium was assessed for levels of pro-inflammatory cytokines to ensure their secretion from PBMC. […]

Row | Structure (SMILES) | effect on IL-1β-stimulated GAG degradation/release (in words) [1] | cytokine-stimulated NO production (in words) [2] | effect on IL-1β-stimulated PGE2 synthesis (in words) [3] | effect on IL-1β-stimulated NO production (in words) ([4]; chondrocyte pellet / ARC model) | inhibition of GAG release (in words) ([5]; at as low as 0.1 μM) | NO production (in words) ([4]; diacerein at 5.4 μM, rhein at 0.35 μM, 10 ng/ml IL-1β, five days) | proteoglycan degradation in injured cartilage induced by inflammatory mediators (in words) ([5]; at high dosage, LPS-stimulated PBMC conditioned medium)
1 | CNC(=O)[C@H](Cc1ccccc1)NC(=O)[C@H](CC(C)C)[C@H](CSc1cccs1)C(=O)NO [Batimastat, reference compound] | fully inhibited | did inhibit |  |  |  |  | 
2 | CO[C@H]1C[C@@H]2CC[C@@H](C)[C@@](O)(O2)C(=O)C(=O)N2CCCC[C@H]2C(=O)O[C@H]([C@H](C)C[C@@H]2CC[C@@H](O)[C@H](OC)C2)CC(=O)[C@H](C)/C=C(\C)[C@@H](O)[C@@H](OC)C(=O)[C@H](C)C[C@H](C)/C=C/C=C/C=C/1C [Rapamycin, reference compound] | inhibited |  | inhibited | inhibited | completely |  | 
3 | O=C(O)c1cc(O)c2c(c1)C(=O)c1cccc(O)c1C2=O [Rhein, reference compound] |  |  |  |  |  | significantly inhibited | completely inhibited
